{"sequences": {"note": "Chains of the proteins cited; added tags and fusions are not shown. Lines headed by an entry give the natural chain unless they say otherwise; changes in a name come on top.", "UniProt Q01638": "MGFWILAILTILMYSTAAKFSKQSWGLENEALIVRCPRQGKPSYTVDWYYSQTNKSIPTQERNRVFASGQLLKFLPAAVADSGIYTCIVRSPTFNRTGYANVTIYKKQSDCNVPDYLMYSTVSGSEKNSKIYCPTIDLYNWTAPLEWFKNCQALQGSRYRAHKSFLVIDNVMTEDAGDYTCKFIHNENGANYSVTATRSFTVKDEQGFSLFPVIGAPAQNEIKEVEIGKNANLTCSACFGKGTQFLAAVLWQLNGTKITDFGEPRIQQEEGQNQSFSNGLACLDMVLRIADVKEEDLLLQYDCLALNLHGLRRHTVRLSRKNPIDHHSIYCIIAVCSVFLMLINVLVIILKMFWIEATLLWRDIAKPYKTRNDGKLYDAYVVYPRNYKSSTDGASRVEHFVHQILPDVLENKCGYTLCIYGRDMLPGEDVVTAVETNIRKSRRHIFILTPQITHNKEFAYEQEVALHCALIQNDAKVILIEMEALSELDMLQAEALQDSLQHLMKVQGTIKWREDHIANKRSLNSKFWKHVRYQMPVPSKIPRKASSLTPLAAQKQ"}, "source": "PubChem BioAssay AID1259354", "about": "(Paczesny and Yang Labs, IUPUI and University of Michigan, 2018)", "note": "Among all 78,000 compounds or so, about 1,800 (2.3%) were called active. Inconclusive means that the source gave no clear call. Such entries were picked first, then a sample of the others. Cut-off read from the data, not from the text of the source: active = inhibition above about 30%; inconclusive = mostly about 10% to 28%; inactive = weaker than that.", "data": [{"target": "Interleukin-1 receptor-like 1 (Homo sapiens) (UniProt Q01638)", "test": "blocks human ST2 binding to IL-33, primary screen, biochemical, AlphaLISA (AID 1259354)", "details": "AlphaLISA ST2-Fc/biotin-IL-33 interaction, 1 h; at 17 µM, active compounds read high", "values": [{"smiles": "CCc1nn(C)c(Cl)c1CN1CCCC1c1ccc(F)cc1", "note": "(centres undefined)", "inhibition": "inconclusive: 17%"}, {"smiles": "CC1CCC(N2C(=O)c3ccccc3C2C(=O)NC2CCCCC2)CC1", "note": "(centres undefined)", "inhibition": "inconclusive: 10%"}, {"smiles": "CCOc1cc2c(cc1OCC)C1C(C(=O)NC(C)CC)c3ccccc3C(=O)N1CC2", "note": "(centres undefined)", "inhibition": "inactive"}, {"smiles": "CC[C@H]1CN(C(=O)C2CCN(C(=O)c3ccncc3)CC2)CC[C@@]1(C)O", "inhibition": "inactive"}, {"smiles": "Cc1ccc(Nc2cc(C)nc(Nc3ccc(NC(=O)C(C)C)cc3)n2)cc1", "inhibition": "inconclusive: 14%"}, {"smiles": "O=C1C[C@H]2CC[C@@H](CN1)N2C(=O)Cc1c[nH]c2ccccc12", "inhibition": "inactive"}, {"smiles": "CN1CCCC2(CCN(C(=O)CCN3CCNCC3)C2)C1=O", "note": "(centres undefined)", "inhibition": "inconclusive: 22%"}, {"smiles": "CCS(=O)(=O)N1CCCC(C(=O)NCc2ccco2)C1", "note": "(centres undefined)", "inhibition": "inconclusive: 22%"}, {"smiles": "CNC(=O)c1ccc(OC)c(-n2ccc(C)n2)c1", "inhibition": "inconclusive: 11%"}, {"smiles": "CCSc1nc2c(sc3ccccc32)c(=O)n1CC1CCCO1", "note": "(centres undefined)", "inhibition": "inactive"}, {"smiles": "COCCCC1CCCCN1C(=O)NCCc1ccccc1", "note": "(centres undefined)", "inhibition": "inactive"}, {"smiles": "Cc1cnc(SCCN2CCOCC2)nc1C1CCCN(C(=O)c2noc3c2CCCC3)C1", "note": "(centres undefined)", "inhibition": "inconclusive: 21%"}, {"smiles": "CCOC(=O)c1c(NC(=O)c2c(F)cccc2F)sc2c1CCC2", "inhibition": "inactive"}, {"smiles": "Cc1cccc(OC(C)(C)C(=O)NCc2cccnc2N(C)C)c1", "inhibition": "inactive"}, {"smiles": "N#Cc1c(NC(=O)COc2cccc(Br)c2)sc2c1CCC2", "inhibition": "inconclusive: 19%"}, {"smiles": "O[C@H]1C[C@@H]2CN(Cc3cccc4c3oc3ccccc34)C[C@@H]2C[C@@H]1O", "inhibition": "inactive"}, {"smiles": "Cc1ccc(C2C3=C(CC(C)(C)CC3=O)NC3=C2C(=O)c2ccccc23)cc1", "note": "(centres undefined)", "inhibition": "inconclusive: 17%"}, {"smiles": "COc1ccc(CC2=NOC(C(=O)NCCC3COc4ccccc4O3)C2)cc1", "note": "(centres undefined)", "inhibition": "inactive"}, {"smiles": "O=S(=O)(N[C@H]1CO[C@H]2[C@@H]1OC[C@H]2O)c1ccc(Cl)cc1", "inhibition": "inconclusive: 17%"}, {"smiles": "Cc1ccccc1C(=O)Nc1cc(C)c2c(=O)oc3ccccc3c2n1", "inhibition": "inconclusive: 15%"}, {"smiles": "CCCc1cnc(-c2ccc(OC)c3ncccc23)nc1", "inhibition": "inconclusive: 14%"}, {"smiles": "O=c1oc(-c2ccccc2)nc2sc3c(c12)CCC3", "inhibition": "inconclusive: 22%"}, {"smiles": "Oc1cc(-c2nc3ccccc3s2)cc2c1OCCN(CCn1cccn1)C2", "inhibition": "inactive"}, {"smiles": "CCC(=O)N1CCc2cc(Br)cc(S(=O)(=O)Nc3ccc(F)c(F)c3)c21", "inhibition": "inconclusive: 11%"}, {"smiles": "Cc1ccc(CNc2ccc3c(c2)ncn3C(C)(C)C)cc1", "inhibition": "inconclusive: 23%"}, {"smiles": "O=C(O)c1ccc2c(c1)NC(=O)C(N1CCCC1)S2", "note": "(centres undefined)", "inhibition": "inconclusive: 12%"}, {"smiles": "O=c1c2ccccc2n(Cc2cc(=O)n3ccccc3n2)c(=O)n1CCc1ccc(Cl)cc1", "inhibition": "inactive"}, {"smiles": "O=[N+]([O-])c1ccc(N2CCN(Cc3ccc(Br)o3)CC2)cc1", "inhibition": "active: 38%"}, {"smiles": "Cc1cccc(C(C(=O)N(C)CCc2noc(C3CC3)n2)N(C)C)c1", "note": "(centres undefined)", "inhibition": "inactive"}, {"smiles": "Cc1occc1C(=O)N(C)CC1CCCN(CCc2ccccc2F)C1", "note": "(centres undefined)", "inhibition": "inconclusive: 11%"}, {"smiles": "O=C1CNC(=O)N1Cc1nc(CCc2ccccc2)nn1-c1ccccn1", "inhibition": "inconclusive: 14%"}, {"smiles": "CCc1nc2cccnc2n1C1CCN(S(=O)(=O)c2ccc(C)cc2C)CC1", "inhibition": "inconclusive: 12%"}, {"smiles": "O=C(c1cccc(F)c1)N1CCN=C1SCc1ccccc1F", "inhibition": "inactive"}, {"smiles": "CCC(C)NC(=O)c1cn(CC(C)C)c(=O)c2cc(OC)c(OC)cc12", "note": "(centres undefined)", "inhibition": "inactive"}, {"smiles": "CCN1C(=O)CC(CC(=O)N2CCN(c3ccccc3O)CC2)(c2cccc(C(F)(F)F)c2)C1=O", "note": "(centres undefined)", "inhibition": "inconclusive: 28%"}, {"smiles": "COc1ccc(N2CCN(C(=O)c3cc4cc5ccc(Cl)cc5nc4o3)CC2)cc1", "inhibition": "inconclusive: 14%"}, {"smiles": "N#Cc1c(NC(=O)c2noc3c2CCCCC3)sc2c1CCC2", "inhibition": "inconclusive: 20%"}, {"smiles": "Cc1c(Cl)c(C)c([N+](=O)[O-])c(O)c1C=Nc1ccc(F)cc1", "inhibition": "inactive"}, {"smiles": "COc1ccc(C(=O)N2CCC(C(=O)Nc3ccccc3Br)CC2)cc1", "inhibition": "inactive"}, {"smiles": "O=C(CCS(=O)(=O)c1cccc2nsnc12)NCCc1ccccc1Cl", "inhibition": "inconclusive: 20%"}, {"smiles": "COCCn1c(CNS(=O)(=O)c2ccc(C(C)C)cc2)nc2cccnc21", "inhibition": "inconclusive: 13%"}, {"smiles": "CC(=O)c1cccc(NC(=O)CN2C(=O)C3C4CCC(C4)C3C2=O)c1", "note": "(centres undefined)", "inhibition": "inactive"}, {"smiles": "CC(=O)Nc1ccc(Cc2ccc(NC(C)=O)c(C)c2)cc1C", "inhibition": "inactive"}, {"smiles": "COc1ccc(N=Cc2c(O)n(-c3ccccc3C)c(=O)c3ccccc23)c(OC)c1", "inhibition": "active: 43%"}, {"smiles": "COc1ccc(OCCCC(=O)Nc2ccc(OC)c(OC)c2)cc1", "inhibition": "inconclusive: 22%"}, {"smiles": "N#Cc1cccc(NC(=O)N[C@H]2[C@H](O)[C@@H](N3CCC(Cc4ccccc4)CC3)[C@@H]3OC[C@H]2O3)c1", "inhibition": "inconclusive: 18%"}, {"smiles": "COc1cccc(OCc2nc(C(=O)N[C@@H]3C[C@H]3c3ccccc3)co2)c1", "inhibition": "inconclusive: 11%"}, {"smiles": "COc1cccc(-c2ccccc2NC(=O)C2CCN(Cc3ccc(C)o3)CC2)c1", "inhibition": "inconclusive: 15%"}, {"smiles": "CCOc1ccc(NC(=O)Nc2ccccc2)cc1", "inhibition": "inconclusive: 15%"}, {"smiles": "O=C(C[C@@H]1CCNC[C@@H]1Cc1cc(-c2ccccn2)on1)N1CCN(Cc2ccccc2)CC1", "inhibition": "inconclusive: 16%"}, {"smiles": "CN(C)S(=O)(=O)N1CCC(N2CCCC(C(=O)N3CCOCC3)C2)CC1", "note": "(centres undefined)", "inhibition": "inconclusive: 13%"}, {"smiles": "CCOc1ccc(C2CC(=O)N3CN(c4ccccc4OC)CSC3=C2C#N)cc1", "note": "(centres undefined)", "inhibition": "inconclusive: 12%"}, {"smiles": "CCCCOc1ccc(S(=O)(=O)N2CCN(c3nc(C)cc(N4CCCCC4)n3)CC2)cc1", "inhibition": "inconclusive: 19%"}, {"smiles": "COc1ccc(OC)c(C2SCCN2S(=O)(=O)c2ccc(Br)cc2)c1", "note": "(centres undefined)", "inhibition": "inconclusive: 11%"}, {"smiles": "O=C(CSc1nnc(Cc2cc(=O)[nH]c(=O)[nH]2)n1-c1ccccc1)NCCc1ccccc1", "inhibition": "inconclusive: 13%"}, {"smiles": "Oc1cccc2ccc(CN3CCCC(OCc4cccnc4)C3)nc12", "note": "(centres undefined)", "inhibition": "inconclusive: 10%"}, {"smiles": "O=C(O)c1cc(C2=CCCCC2)cc(S(=O)(=O)NCc2ccccn2)c1", "inhibition": "inconclusive: 20%"}, {"smiles": "COc1cc(C2CC(=O)Nc3cc4[nH]ncc4cc32)cc2c1OCO2", "note": "(centres undefined)", "inhibition": "inconclusive: 18%"}, {"smiles": "O=C1NC(=O)C(=Cc2cn(CCOc3ccccc3Cl)c3ccccc23)C(=O)N1", "inhibition": "inconclusive: 22%"}, {"smiles": "O=C(c1ccc(F)cc1)N1CCN(c2ccc([N+](=O)[O-])cc2)CC1", "inhibition": "inconclusive: 12%"}, {"smiles": "Cc1ccc(C2Nc3ccccc3NC3=C2C(=O)CC(C)(C)C3)o1", "note": "(centres undefined)", "inhibition": "inconclusive: 12%"}, {"smiles": "O=S(=O)(c1cccnc1)N1CCCC(N2CCN(Cc3ccc4c(c3)OCO4)CC2)C1", "note": "(centres undefined)", "inhibition": "inactive"}, {"smiles": "Cc1cccn2c(=O)c(C=Nc3ccc(Cl)cc3)c(NCCO)nc12", "inhibition": "inconclusive: 23%"}, {"smiles": "O=C1CC(c2nc(-c3ccccc3)cs2)C2(CCCCC2)O1", "note": "(centres undefined)", "inhibition": "inactive"}, {"smiles": "COc1ccc(NC(=O)Cn2cnc3c2c(=O)n(C)c(=O)n3C)c(OC)c1", "inhibition": "inconclusive: 14%"}, {"smiles": "COc1ccc(N2C(=O)C3CCCN3C2c2ccc(SC)cc2)cc1Cl", "note": "(centres undefined)", "inhibition": "inconclusive: 13%"}, {"smiles": "CC(C)OCC(O)Cn1c(Br)nc2c1c(=O)n(C)c(=O)n2C", "note": "(centres undefined)", "inhibition": "inconclusive: 11%"}, {"smiles": "CCOC(=O)c1sc2nc(C)nc(Nc3cccc(C)c3)c2c1C", "inhibition": "inactive"}, {"smiles": "Cc1cc(C)c2c(=O)[nH]c(SCC(=O)NCc3ccccc3)nc2n1", "inhibition": "inconclusive: 10%"}, {"smiles": "COCCN1CCC(C(=O)N(C)Cc2cccc(Cl)c2)C1", "note": "(centres undefined)", "inhibition": "inconclusive: 15%"}, {"smiles": "COc1ccc(C2C3=C(N=C4SCC(=O)N42)c2ccccc2CC3)cc1", "note": "(centres undefined)", "inhibition": "inconclusive: 25%"}, {"smiles": "O=C(O)c1cccc(N2C(=O)c3ccc(Oc4ccccc4)cc3C2=O)c1", "inhibition": "inactive"}, {"smiles": "CC1CCCN(CCCNS(=O)(=O)c2cccc3nonc23)C1", "note": "(centres undefined)", "inhibition": "inactive"}, {"smiles": "Cc1cc(C)cc(NC(=O)c2cnc3scc(C)n3c2=O)c1", "inhibition": "inconclusive: 22%"}, {"smiles": "COc1ccc(F)c(CN2CCC(NS(C)(=O)=O)CC2)c1Cl", "inhibition": "inconclusive: 18%"}, {"smiles": "CCn1nc(C)c(CN2CCCC(N3CCCC3=O)C2)c1C", "note": "(centres undefined)", "inhibition": "inconclusive: 13%"}, {"smiles": "CC(C)C(NS(=O)(=O)c1cccs1)C(=O)N1CCN(c2ccccc2F)CC1", "note": "(centres undefined)", "inhibition": "inconclusive: 13%"}, {"smiles": "O=C(C1CC1)N1CCc2cc(S(=O)(=O)N(CCc3ccccc3)Cc3ccccc3)ccc21", "inhibition": "inconclusive: 13%"}, {"smiles": "CCC(=O)Nc1cc(C(=O)NC(C)CC)ccc1S(=O)(=O)c1ccc(C)cc1", "note": "(centres undefined)", "inhibition": "inconclusive: 18%"}, {"smiles": "COc1ccc(C2C3=C(CCCC3=O)Nc3nc(SCc4ccc(Cl)cc4)nn32)cc1", "note": "(centres undefined)", "inhibition": "inactive"}, {"smiles": "CCCOC(=O)C1=C(C)NC2=C(C(=O)C(C(=O)OC)C(C)C2)C1c1ccc(O)c(OC)c1", "note": "(centres undefined)", "inhibition": "inactive"}, {"smiles": "Cc1cc(NS(=O)(=O)c2ccccc2)ccc1-c1cc2ccccc2oc1=O", "inhibition": "inactive"}, {"smiles": "CC(C)C1CN(C(=O)c2cc(-c3ccncc3)n[nH]2)CCC(=O)N1CC1CC1", "note": "(centres undefined)", "inhibition": "inactive"}, {"smiles": "O=[N+]([O-])c1ccc(N2CCCC2)cc1Sc1cccc2cccnc12", "inhibition": "inconclusive: 24%"}, {"smiles": "COC(C)c1ccc(-c2cc(C(=O)O)cc(S(=O)(=O)N3CCCC3)c2)cc1", "note": "(centres undefined)", "inhibition": "inconclusive: 14%"}, {"smiles": "CCN1CCN(C(=O)c2oc3ccc(S(=O)(=O)N4CCCCCC4)cc3c2C)CC1", "inhibition": "inactive"}, {"smiles": "COc1ccc2nc(NC(=O)c3cn(CC(C)C)c(=O)c4c3c3ccccc3n4C)sc2c1", "inhibition": "inactive"}, {"smiles": "COc1ccccc1/C=C1/OC(=O)c2c1cc(C)[nH]c2=O", "inhibition": "inconclusive: 21%"}, {"smiles": "N#CC1=C(N)Oc2c(c(=O)[nH]c3ccccc23)C1c1cc(Br)cs1", "note": "(centres undefined)", "inhibition": "inactive"}, {"smiles": "Cn1nccc1C#CCN1CCOCC1", "inhibition": "inconclusive: 13%"}, {"smiles": "Cc1ccccc1C(=O)Nc1ccc([N+](=O)[O-])cc1Br", "inhibition": "inconclusive: 19%"}, {"smiles": "CN1CCN(Cc2cc(O)ccc2[N+](=O)[O-])CC1", "inhibition": "inactive"}, {"smiles": "Cc1ccc(NCCC(=O)c2ccc(C)o2)cc1", "inhibition": "active: 31%"}, {"smiles": "COc1ccccc1CN1CCN(Cc2nc(-c3ccccn3)no2)CC1", "inhibition": "inconclusive: 12%"}]}]}
